Experimental data: PubChem BioAssay AID493246 (Drosophila RNAi Screening Center, 2011)
Assay: 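Genes fly cells need to grow and stay alive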 (primary screen). Cell system: Drosophila Kc and S2R+ cells. Reagent: long dsRNA against Drosophila genes. Detection: 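Raw, unnormalised count of remaining cells in each well; per-plate z-scores of cell number underlie the calls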. Direction: Kc cell number and S2R+ cell number: higher = more cells remaining. Hit rule: 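Counted as a hit if cell number falls by a z-score of at least 3 within its plate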.
The deposit covers about 21,000 reagents; this is a random part of those that have a named target and a result. Of all reagents, 429 (2%) are marked active. 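Values are raw and not normalised between plates; calls rest on per-plate z-scores that were not deposited.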 The numbers tell different reagents against one gene apart. A plus sign joins genes that one reagent is predicted to hit. No sequences are given here. The record does not give: the amount of reagent, the time to read-out.

How did the screen score GMF (Glia maturation factor)?
Kc cell number, rep 1: 1.50e6; Kc cell number, rep 2: 1.58e6; S2R+ cell number, rep 1: 1.47e6; S2R+ cell number, rep 2: 1.38e6; activity call: inactive

How did the screen score wdb (widerborst)?
Kc cell number, rep 1: 1.47e6; Kc cell number, rep 2: 1.57e6; S2R+ cell number, rep 1: 9.47e5; S2R+ cell number, rep 2: 1.14e6; activity call: inactive

Which result is listed for wupA (wings up A)?
Kc cell number, rep 1: 1.49e6; Kc cell number, rep 2: 1.31e6; S2R+ cell number, rep 1: 1.07e6; S2R+ cell number, rep 2: 1.13e6; activity call: inactive

For Spase25 (Spase 25-subunit), what does the deposit list?
Kc cell number, rep 1: 5.58e5; S2R+ cell number, rep 1: 8.27e5; activity call: inactive

With Shark (SH2 ankyrin repeat kinase), how do the results read?
Kc cell number, rep 1: 1.46e6; Kc cell number, rep 2: 1.47e6; S2R+ cell number, rep 1: 1.16e6; S2R+ cell number, rep 2: 1.25e6; activity call: inactive

For Hn (Henna), how do the results read?
Kc cell number, rep 1: 1.40e6; Kc cell number, rep 2: 1.54e6; S2R+ cell number, rep 1: 1.32e6; S2R+ cell number, rep 2: 1.26e6; activity call: inactive

For rictor (rapamycin-insensitive companion of Tor), what was measured?
Kc cell number, rep 1: 1.57e6; Kc cell number, rep 2: 1.63e6; S2R+ cell number, rep 1: 1.10e6; S2R+ cell number, rep 2: 1.25e6; activity call: inactive

For CG1136, what does the deposit list?
Kc cell number, rep 1: 1.37e6; Kc cell number, rep 2: 1.41e6; S2R+ cell number, rep 1: 1.22e6; S2R+ cell number, rep 2: 1.16e6; activity call: inactive

Which result is listed for CG1835?
Kc cell number, rep 1: 1.43e6; Kc cell number, rep 2: 1.44e6; S2R+ cell number, rep 1: 1.04e6; S2R+ cell number, rep 2: 1.14e6; activity call: inactive

With CR14499 (retired record), what was measured?
Kc cell number, rep 1: 1.49e6; Kc cell number, rep 2: 1.55e6; S2R+ cell number, rep 1: 1.15e6; S2R+ cell number, rep 2: 1.25e6; activity call: inactive

What did the screen give for M1BP (Motif 1 Binding Protein)?
Kc cell number, rep 1: 1.43e6; Kc cell number, rep 2: 1.67e6; S2R+ cell number, rep 1: 1.04e6; S2R+ cell number, rep 2: 1.14e6; activity call: inactive

What did the screen give for eIF2beta (eukaryotic translation initiation factor 2 subunit beta)?
Kc cell number, rep 1: 9.70e5; Kc cell number, rep 2: 1.06e6; S2R+ cell number, rep 1: 8.71e5; S2R+ cell number, rep 2: 1.04e6; activity call: inactive

For scpr-A + scpr-C, what does the deposit list?
Kc cell number, rep 1: 1.65e6; Kc cell number, rep 2: 1.41e6; S2R+ cell number, rep 1: 1.18e6; S2R+ cell number, rep 2: 1.35e6; activity call: inactive

With CG9284 (retired record) #1, what does the deposit list?
Kc cell number, rep 1: 5.04e5; S2R+ cell number, rep 1: 8.31e5; activity call: inactive

For CG9284 (retired record) #2, what does the deposit list?
Kc cell number, rep 1: 1.46e6; Kc cell number, rep 2: 1.48e6; S2R+ cell number, rep 1: 1.00e6; S2R+ cell number, rep 2: 1.05e6; activity call: inactive

A run of entries taken from the entries so far:
Hn (Henna): Kc cell number, rep 1 = 1.40e6; Kc cell number, rep 2 = 1.54e6; S2R+ cell number, rep 1 = 1.32e6; S2R+ cell number, rep 2 = 1.26e6; activity call = inactive
rictor (rapamycin-insensitive companion of Tor): Kc cell number, rep 1 = 1.57e6; Kc cell number, rep 2 = 1.63e6; S2R+ cell number, rep 1 = 1.10e6; S2R+ cell number, rep 2 = 1.25e6; activity call = inactive

Additional entries follow:
For CHOp24, what was measured?
Kc cell number, rep 1: 6.03e5; S2R+ cell number, rep 1: 8.55e5; activity call: inactive

How did the screen score pie (pineapple eye)?
Kc cell number, rep 1: 1.36e6; Kc cell number, rep 2: 1.39e6; S2R+ cell number, rep 1: 1.17e6; S2R+ cell number, rep 2: 1.24e6; activity call: inactive

How did the screen score CG15446?
Kc cell number, rep 1: 1.55e6; Kc cell number, rep 2: 1.60e6; S2R+ cell number, rep 1: 1.13e6; S2R+ cell number, rep 2: 1.27e6; activity call: inactive

For Or33c (Odorant receptor 33c), what was measured?
Kc cell number, rep 1: 1.51e6; Kc cell number, rep 2: 1.61e6; S2R+ cell number, rep 1: 1.26e6; S2R+ cell number, rep 2: 1.41e6; activity call: inactive

For Ocho, how do the results read?
Kc cell number, rep 1: 1.40e6; Kc cell number, rep 2: 1.39e6; S2R+ cell number, rep 1: 1.23e6; S2R+ cell number, rep 2: 1.33e6; activity call: inactive

For CG10694, what was measured?
Kc cell number, rep 1: 1.51e6; Kc cell number, rep 2: 1.57e6; S2R+ cell number, rep 1: 1.00e6; S2R+ cell number, rep 2: 1.10e6; activity call: inactive

What did the screen give for Fib (Fibrillarin)?
Kc cell number, rep 1: 1.56e6; Kc cell number, rep 2: 1.62e6; S2R+ cell number, rep 1: 1.10e6; S2R+ cell number, rep 2: 1.35e6; activity call: inactive

With eIF3g1 (eukaryotic translation initiation factor 3 subunit g1), how do the results read?
Kc cell number, rep 1: 4.32e5; S2R+ cell number, rep 1: 5.87e5; activity call: inactive

With CG2063, what was measured?
Kc cell number, rep 1: 1.61e6; Kc cell number, rep 2: 1.64e6; S2R+ cell number, rep 1: 1.18e6; S2R+ cell number, rep 2: 1.26e6; activity call: inactive

For sls (sallimus) #1, how do the results read?
Kc cell number, rep 1: 1.35e6; Kc cell number, rep 2: 1.41e6; S2R+ cell number, rep 1: 1.23e6; S2R+ cell number, rep 2: 1.29e6; activity call: inactive

For sls (sallimus) #2, what was measured?
Kc cell number, rep 1: 1.56e6; Kc cell number, rep 2: 1.50e6; S2R+ cell number, rep 1: 9.31e5; S2R+ cell number, rep 2: 1.11e6; activity call: inactive

With sls (sallimus) #3, what was measured?
Kc cell number, rep 1: 1.63e6; Kc cell number, rep 2: 1.02e6; S2R+ cell number, rep 1: 1.01e6; S2R+ cell number, rep 2: 1.23e6; activity call: inactive
